# Data published in paper PMC5647328.
# Protein sequences, listed by entry. Tags and fused reporters are not part of them.
# UniProt Q6BEB4: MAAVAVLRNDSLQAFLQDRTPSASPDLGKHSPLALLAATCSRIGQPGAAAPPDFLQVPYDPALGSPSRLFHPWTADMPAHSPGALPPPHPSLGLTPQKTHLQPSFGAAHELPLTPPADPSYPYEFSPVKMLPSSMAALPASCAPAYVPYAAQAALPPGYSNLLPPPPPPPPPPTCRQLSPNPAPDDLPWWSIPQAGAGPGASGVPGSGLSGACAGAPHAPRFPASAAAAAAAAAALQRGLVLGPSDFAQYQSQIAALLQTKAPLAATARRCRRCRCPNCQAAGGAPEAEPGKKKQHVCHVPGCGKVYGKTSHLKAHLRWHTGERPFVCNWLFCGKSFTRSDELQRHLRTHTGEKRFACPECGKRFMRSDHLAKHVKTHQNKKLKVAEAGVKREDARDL
# UniProt P35222: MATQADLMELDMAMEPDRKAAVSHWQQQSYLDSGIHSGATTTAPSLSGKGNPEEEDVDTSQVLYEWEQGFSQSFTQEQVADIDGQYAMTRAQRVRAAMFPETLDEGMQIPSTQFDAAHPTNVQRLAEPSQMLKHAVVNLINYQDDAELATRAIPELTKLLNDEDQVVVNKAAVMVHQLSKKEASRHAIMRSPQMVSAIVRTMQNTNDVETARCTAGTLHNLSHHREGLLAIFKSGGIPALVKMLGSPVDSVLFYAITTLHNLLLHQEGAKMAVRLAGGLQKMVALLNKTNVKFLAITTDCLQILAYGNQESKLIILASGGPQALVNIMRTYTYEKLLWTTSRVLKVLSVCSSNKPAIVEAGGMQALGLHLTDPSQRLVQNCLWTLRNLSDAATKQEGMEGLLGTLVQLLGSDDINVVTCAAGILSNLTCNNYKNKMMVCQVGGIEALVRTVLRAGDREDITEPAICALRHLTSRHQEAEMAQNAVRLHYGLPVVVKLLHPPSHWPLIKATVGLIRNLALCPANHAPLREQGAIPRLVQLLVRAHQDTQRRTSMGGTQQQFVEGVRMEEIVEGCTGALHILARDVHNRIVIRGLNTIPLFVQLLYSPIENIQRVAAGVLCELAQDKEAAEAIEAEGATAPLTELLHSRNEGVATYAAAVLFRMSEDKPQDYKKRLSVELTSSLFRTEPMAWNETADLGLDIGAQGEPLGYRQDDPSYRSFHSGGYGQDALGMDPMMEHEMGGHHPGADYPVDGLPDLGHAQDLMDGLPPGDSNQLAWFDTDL
# No constants are given. Whether binding was seen depends on the method and setting. Binding seen in cells or lysates may run through a third protein. These calls come from enrichment with a bait or labelling near it, and not all partners need be listed.
# Target: SP5–APEX2 fusion protein (human) (UniProt Q6BEB4)
# Assay: proximity labelling; HEK-293 cells transfected with SP5-APEX2; 48 h later 500 µM biotin-phenol for 30 min, 1 mM H2O2 for 1 min; lysis in RIPA, streptavidin beads, immunoblot
substance,measurement,value
β-catenin (from UniProt P35222 1-781),binding,binds
